# Assay results as given in PubChem BioAssay (NCATS).
# Amino acid sequences for entries named in this document (tags omitted). A change or cut given only in a name is not applied to a line headed by its entry.
# UniProt P10275: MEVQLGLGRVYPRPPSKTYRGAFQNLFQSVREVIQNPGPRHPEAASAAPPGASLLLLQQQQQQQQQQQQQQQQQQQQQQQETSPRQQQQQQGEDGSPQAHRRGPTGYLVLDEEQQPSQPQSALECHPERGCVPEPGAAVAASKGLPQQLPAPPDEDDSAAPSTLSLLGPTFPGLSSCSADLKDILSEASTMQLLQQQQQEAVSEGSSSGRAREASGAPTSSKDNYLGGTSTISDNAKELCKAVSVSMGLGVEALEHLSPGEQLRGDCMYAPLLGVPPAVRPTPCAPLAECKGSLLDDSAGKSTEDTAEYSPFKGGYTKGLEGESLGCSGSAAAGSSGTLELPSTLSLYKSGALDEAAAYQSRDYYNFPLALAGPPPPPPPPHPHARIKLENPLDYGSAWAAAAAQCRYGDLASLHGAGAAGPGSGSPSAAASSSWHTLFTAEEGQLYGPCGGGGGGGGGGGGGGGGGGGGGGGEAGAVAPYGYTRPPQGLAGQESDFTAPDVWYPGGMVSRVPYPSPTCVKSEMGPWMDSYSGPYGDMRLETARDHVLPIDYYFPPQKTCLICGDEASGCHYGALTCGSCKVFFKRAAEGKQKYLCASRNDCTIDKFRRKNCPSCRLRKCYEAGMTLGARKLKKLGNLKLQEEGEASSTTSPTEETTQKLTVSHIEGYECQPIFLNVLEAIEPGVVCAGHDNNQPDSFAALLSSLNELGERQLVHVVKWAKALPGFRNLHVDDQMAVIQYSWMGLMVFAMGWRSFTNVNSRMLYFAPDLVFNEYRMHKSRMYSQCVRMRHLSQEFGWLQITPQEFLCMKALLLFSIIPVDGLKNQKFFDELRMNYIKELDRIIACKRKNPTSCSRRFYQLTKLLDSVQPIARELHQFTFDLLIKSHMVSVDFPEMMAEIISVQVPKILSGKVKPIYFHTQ
# UniProt P10828: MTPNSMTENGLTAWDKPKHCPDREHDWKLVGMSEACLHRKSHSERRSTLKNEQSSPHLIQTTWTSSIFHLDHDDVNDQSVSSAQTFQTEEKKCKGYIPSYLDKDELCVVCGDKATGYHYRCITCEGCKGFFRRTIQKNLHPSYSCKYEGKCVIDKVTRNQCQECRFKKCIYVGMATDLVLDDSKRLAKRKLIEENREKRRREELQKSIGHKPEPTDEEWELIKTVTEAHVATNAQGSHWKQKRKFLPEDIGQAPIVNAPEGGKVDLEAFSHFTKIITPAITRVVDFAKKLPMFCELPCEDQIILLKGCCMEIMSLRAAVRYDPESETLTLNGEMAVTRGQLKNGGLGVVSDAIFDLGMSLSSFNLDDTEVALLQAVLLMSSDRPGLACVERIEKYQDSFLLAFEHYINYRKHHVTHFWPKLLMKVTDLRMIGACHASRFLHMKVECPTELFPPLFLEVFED
# UniProt Q96RI1: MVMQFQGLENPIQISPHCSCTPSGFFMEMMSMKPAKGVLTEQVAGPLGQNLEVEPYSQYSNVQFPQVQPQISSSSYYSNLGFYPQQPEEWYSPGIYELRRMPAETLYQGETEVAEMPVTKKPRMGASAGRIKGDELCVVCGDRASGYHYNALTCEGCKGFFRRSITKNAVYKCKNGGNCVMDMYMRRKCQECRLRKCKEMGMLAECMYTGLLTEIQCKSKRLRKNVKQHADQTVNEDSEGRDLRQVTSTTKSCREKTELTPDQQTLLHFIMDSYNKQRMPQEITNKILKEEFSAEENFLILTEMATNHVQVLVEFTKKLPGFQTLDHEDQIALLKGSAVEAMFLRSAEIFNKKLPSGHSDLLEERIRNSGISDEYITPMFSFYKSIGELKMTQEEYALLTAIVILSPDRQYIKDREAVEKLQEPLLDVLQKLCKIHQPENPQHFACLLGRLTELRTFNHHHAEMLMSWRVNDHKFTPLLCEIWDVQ
# UniProt P37231: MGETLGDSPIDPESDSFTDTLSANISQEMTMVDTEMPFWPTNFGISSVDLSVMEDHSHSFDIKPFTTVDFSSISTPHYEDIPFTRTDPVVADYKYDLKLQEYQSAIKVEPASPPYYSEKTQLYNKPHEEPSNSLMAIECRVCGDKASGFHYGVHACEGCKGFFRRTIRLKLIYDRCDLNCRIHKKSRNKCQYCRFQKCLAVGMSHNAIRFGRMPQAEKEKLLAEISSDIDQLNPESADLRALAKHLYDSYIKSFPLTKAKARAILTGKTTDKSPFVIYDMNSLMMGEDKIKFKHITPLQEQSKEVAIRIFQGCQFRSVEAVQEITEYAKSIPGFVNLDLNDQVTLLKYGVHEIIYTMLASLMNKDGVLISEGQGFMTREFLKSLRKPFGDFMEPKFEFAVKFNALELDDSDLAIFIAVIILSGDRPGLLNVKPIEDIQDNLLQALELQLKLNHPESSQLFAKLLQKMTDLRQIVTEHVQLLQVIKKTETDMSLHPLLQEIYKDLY
# UniProt P51449: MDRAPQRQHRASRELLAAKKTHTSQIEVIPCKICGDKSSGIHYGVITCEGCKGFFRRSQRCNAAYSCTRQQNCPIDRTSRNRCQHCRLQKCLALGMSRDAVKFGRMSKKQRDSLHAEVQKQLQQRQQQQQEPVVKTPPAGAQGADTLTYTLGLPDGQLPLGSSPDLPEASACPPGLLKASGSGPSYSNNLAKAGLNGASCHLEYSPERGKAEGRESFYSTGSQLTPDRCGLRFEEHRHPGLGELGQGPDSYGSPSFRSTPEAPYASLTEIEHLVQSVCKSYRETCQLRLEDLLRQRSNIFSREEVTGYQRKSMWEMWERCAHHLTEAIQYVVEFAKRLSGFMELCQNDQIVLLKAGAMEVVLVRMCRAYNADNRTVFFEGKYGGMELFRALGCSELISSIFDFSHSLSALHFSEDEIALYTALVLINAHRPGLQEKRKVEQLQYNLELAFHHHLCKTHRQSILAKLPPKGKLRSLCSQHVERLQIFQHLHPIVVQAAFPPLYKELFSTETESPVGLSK
# Inconclusive means that the source gave no clear call. Such entries were picked first, then a sample of the others. A call without a number means that no potency is given here. For part of these data: Where the call is inconclusive, the potency comes from a doubtful curve fit. For part of these data: “Side channel” marks fits to a control or component signal instead of the main read-out. The source made the active and inactive calls. Unless noted, calls come from the whole dose curve; as a rule, active = well fitted curve in the direction sought with a large enough effect; inconclusive = small, poorly fitted or top-dose-only effect, or another doubt; inactive = no such curve, though single readings can be large; an effect the other way counts as inactive or inconclusive.
# What was measured:
# [1] = Cellular Toxicity (caspase-3) Renal Proximal Tubule (AID 667); settings: renal proximal tubule cells, primary cells freshly taken from rat; Potency: caspase-3 activation; caspase-3 activation: at 91.7 µM (top of the series), solvent-only wells 0%, staurosporine 100%;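 note: cells exposed to compound for 16 hours at 37 °C before detection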
# How it was run: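 AC50 derived by standard Hill fit of concentration-response data, normalized between DMSO basal and 10 uM staurosporine as 100% stimulation. Cells: primary rat kidney proximal tubule, 16 h treatment at 37 °C.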
# [2] = Cell Viability - LYMP2-005 (AID 967); note: potency is the fitted concentration of half-maximal effect
# How it was run: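 Acute cytotoxicity is scored as a concentration-dependent drop in intracellular ATP in human lymphoblastoid LYMP2-005 cells after 24 h compound treatment. ATP is quantified by luciferase luminescence, and AC50 is derived by Hill-equation modelling.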
# [3] = Cell Viability - LYMP2-020 (AID 986); settings: activity change, negative = viability loss: at 92.2 µM (top of the series); note: nearly all actives have a fitted effect of over 55% in size
# How it was run: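 Human lymphoblastoid cells, 2500/well, were pre-incubated 5 hr at 37 C, then exposed to compounds for 24 hr at 37 C in complete medium. Intracellular ATP was read by CellTiter-Glo luminescence, and AC50 was derived by Hill fitting of concentration-response data.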
# [4] = molecular target: Androgen receptor (Homo sapiens) (UniProt P10275); assay: qHTS assay for small molecule antagonists of androgen receptor signaling (AID 588516; active = well fitted curve in the direction sought with a large enough effect in the signal ratio, with a control signal flat, not every such curve was filed as active; inconclusive = small, poorly fitted or top-dose-only effect, or effect the other way, or a change in a side signal; inactive = no such curve, though single readings can be large or run the other way; the % refers to the signal ratio); settings: AR-UAS-bla HEK293, beta-lactamase ratio, antagonist mode, 16 h; activity change, negative = inhibition: at 76.8 µM (top of the series)
# How it was run: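 Cells were plated and incubated 5 h, compounds added in titration, then R1881 (10 nM final) as agonist. After 16 h at 37 C, CCF4 substrate was loaded for 2 h at room temperature and fluorescence measured.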
# [5] = molecular target: Thyroid hormone receptor beta (Homo sapiens) (UniProt P10828); assay: qHTS assay for small molecule agonists of thyroid hormone receptor beta signaling (AID 588545; calls by dose curve; note: potency is the fitted concentration of half-maximal effect); settings: TR-UAS-bla GripTite HEK 293, beta-lactamase ratio, agonist mode, 18 h; activation: at 76.7 µM, percent of T3 response, DMSO as zero
# How it was run: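 TR-UAS-bla-GripTite HEK 293 cells in medium with 2% charcoal/dextran FBS, 0.1 mM NEAA and 1 mM sodium pyruvate were treated with titrated compounds for 18 hrs at 37 C. Beta-lactamase reporter was read with CCF4 dye (ex 405, em 460/530 nm); EC50 from Hill fits.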
# [6] = Cell Viability - LYMP2-001 (AID 921); settings: LYMP2-001 lymphoblastoid cell viability; activity change, negative = cytotoxic: at 92.2 µM (top of the series); note: potency is the fitted concentration of half-maximal effect; nearly all actives have a fitted effect of over 70% in size
# How it was run: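 Steps: seed 2500 lymphoblastoid cells/well; 5 hr, 37 C; add compound; 24 hr, 37 C; CellTiter-Glo reagent, 30 min room temperature; read luminescence. Concentration-response modeled by Hill equation for AC50.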
# [7] = molecular target: Bile acid receptor (Homo sapiens) (UniProt Q96RI1); assay: qHTS assay for small molecule agonists of farnesoid X receptor signaling (AID 588527; calls by dose curve); settings: HEK293T FXR-UAS-bla, beta-lactamase ratio, 16 h; activation: hits give high values
# How it was run: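 FXR-UAS-bla HEK293T cells (10% dialyzed FBS) preincubated 5-7 h at 37 C, then compounds at up to 92 uM for 16 h at 37 C. CCF4 beta-lactamase read-out after 2 h RT. Normalized to chenodeoxycholic acid (100 uM) and DMSO; Hill fit gave EC50 and efficacy.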
# [8] = MultiTox-Fluor Cytotoxicity Assay - LYMP1-001 - Live Cells (AID 947); note: potency is the fitted concentration of half-maximal effect
# [9] = Cell Viability - LYMP2-002 (AID 977);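 note: compound exposure lasted 24 h at 37 °C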
# How it was run: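 Cytotoxicity is scored as concentration-dependent loss of cellular ATP in a human lymphoblastoid line after 24 hr compound treatment at 37 C. AC50 is obtained by modelling concentration-response data with the Hill equation.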
# [10] = Cell Viability - LYMP1-002 - Assay at 16 hr (AID 948); settings: LYMP1-002 lymphoblastoid cell viability; at 92.2 µM (top of the series)
# How it was run: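 Seed 2500 LYMP1-002 cells per well in complete medium and hold 5 hr at 37 C. Add compound across a concentration series and incubate 16 hr at 37 C. Add CellTiter-Glo, wait 30 min at room temperature, read luminescence.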
# [11] = Cell Viability - LYMP2-008 (AID 980); note: nearly all actives have a fitted effect of over 60% in size
# How it was run: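 Human lymphoblastoid cells (2500/well) were plated, held 5 hr at 37 C, then exposed to compounds for 24 hr at 37 C in complete medium. Intracellular ATP was read by CellTiter-Glo luminescence; AC50 from Hill-fitted concentration-response.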
# [12] = molecular target: Peroxisome proliferator-activated receptor gamma (Homo sapiens) (UniProt P37231); assay: qHTS assay for small molecule agonists of peroxisome proliferator-activated receptor gamma signaling (AID 588536; active = well fitted curve in the direction sought with a large enough effect in the signal ratio, with a control signal flat, not every such curve was filed as active; inconclusive = small, poorly fitted or top-dose-only effect, or effect the other way, or a change in a side signal; inactive = no such curve, though single readings can be large or run the other way; the % refers to the signal ratio); settings: HEK293 PPARg-UAS-bla, beta-lactamase ratio, 16 h; activation: at 76.7 µM (top of the series), percent of rosiglitazone response, DMSO as zero
# How it was run: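 GeneBLAzer PPAR-gamma-UAS-bla HEK293 cells in 1% charcoal/dextran-treated FBS medium were treated 16 h at 37 C with compounds. Beta-lactamase activity was read by CCF4 ratio (460/530 nm). Response was normalized to 2 uM rosiglitazone (100%) and DMSO, then Hill-fitted for EC50 and efficacy.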
# [13] = Cell Viability - LYMP2-011 (AID 969); note: nearly all actives have a fitted effect of over 60% in size
# How it was run: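 Human lymphoblastoid cells (2500/well) were plated in complete medium, preincubated 5 hr at 37 C, then exposed to compounds for 24 hr at 37 C. Intracellular ATP was read by CellTiter-Glo luminescence, and AC50 came from Hill-equation concentration-response fits.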
# [14] = Cell Viability - LYMP2-013 (AID 970); note: nearly all actives have a fitted effect of over 55% in size
# How it was run: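 Human lymphoblastoid cells, 2500/well, were preincubated 5 hr at 37 C, then treated with compounds for 24 hr at 37 C in complete medium. Intracellular ATP was read by CellTiter-Glo luminescence; AC50 from Hill-equation fits of concentration-response data.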
# [15] = Cell Viability - LYMP2-023 (AID 975);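 note: cellular ATP measured by luciferase luminescence as viability proxy; nearly all actives have a fitted effect of over 55% in size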
# How it was run: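 Human lymphoblastoid cells (2500/well) were preincubated 5 hr at 37 C, then exposed to compounds for 24 hr at 37 C in complete medium. Cellular ATP was read by CellTiter-Glo luminescence, and AC50 came from Hill-equation fits.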
# [16] = molecular target: Nuclear receptor ROR-gamma (Homo sapiens) (UniProt P51449); assay: qHTS assay for small molecule antagonists of the retinoid-related orphan receptor gamma (ROR-gamma) signaling pathway (AID 651802); note: nearly all actives have a fitted effect of over 60% in size
# How it was run: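 CHO cells carrying TET-inducible ROR-gamma and an ROR response element–luciferase reporter were exposed to compound, then induced with doxycycline. After 16hr at 37C, luminescence was read; lower signal indicates antagonism.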
smiles,measurement,setting,value
CC(=O)Nc1ccc(N)cc1,Potency,[1],inactive
same,Potency,[2],inactive
same,Potency,[3],inactive
same,"activity change, negative = inhibition",[4],inconclusive: -28.6%
same,Potency,[5],"inconclusive: 25100 nM [side channel, rising, single point]"
CCCCCCc1ccc(-c2ccc(C#N)cc2)cc1,Potency,[6],"inconclusive: 100 nM [cytotoxic, full curve, poor fit]"
same,activation,[7],inactive: -1.9%
NC(=O)c1ccc([N+](=O)[O-])cc1,Potency,[8],"inconclusive: 199 nM [cytotoxic, full curve, poor fit]"
same,Potency,[9],inactive
c1c[nH]cn1,"activity change, negative = cytotoxicity",[10],inactive: -3.24%
same,Potency,[11],inactive
same,Potency,[12],inactive
CCCCC(C=O)CC (stereo not drawn),Potency,[2],"inconclusive: 1000 nM [cytotoxic, full curve, poor fit]"
Cc1ccc2ccccc2c1[N+](=O)[O-],Potency,[13],inactive
same,activation,[5],inconclusive: -29%
Cc1c(N)cccc1Cl,Potency,[14],inactive
CCCCOC(=O)COc1ccc(Cl)cc1Cl,Potency,[15],inactive
same,Potency,[16],inactive

# Two consecutive entries from above, quoted:
smiles,measurement,setting,value
Cc1c(N)cccc1Cl,Potency,[14],inactive
CCCCOC(=O)COc1ccc(Cl)cc1Cl,Potency,[15],inactive
